Source: patent US20160039742A1, “EXTRACTION OF TRAMADOL FROM NAUCLEA LATIFOLIA SMITH” ([…] FOURIER - GRENOBLE 1, priority 2013, published 2016)
Marks after values point to notes of the source that are not given here.

Columns and labels:
Assay type in all cases: in vivo
[1] = system: acetic acid-induced abdominal constrictions in mice; experiment: Acetic acid induced abdominal constriction (writhing) test; settings: for Acetic acid-induced writhing inhibition (%): 1 h before acetic acid
Experimental: (§1) Experiments in mice were performed on C57BL/6 male mice (Janvier, Le-Genest-St-Isle, France) weighting 26-35 g, housed in individual cages with food and water ad libitum and kept in a 12 hours/12 hours light-dark cycle. All animal experimentations were carried out in accordance with the rules of the European Committee Council Directive of Nov. 24, 1986 (86/609/EEC) and all procedures were approved by the local department of the veterinarian services for the use and care of animals (agreement #380612). All efforts were made to minimize animal suffering and reduce the number of animals used in each series of experiments.
One hour after oral administration of these substances, each animal was injected i.p. with 0.6% acetic acid in a volume of 10 ml/kg body weight. After acetic acid injection, the number of stretching or writhing responses per animal was recorded during 30 min after a latency period of 5 min. Inhibition was expressed in percentage.
Data were analyzed by two-way Anova followed by Tukey's (HSD) multi-comparison test.

[2] = system: tail flick response in mice after immersion in 55° C. water bath; experiment: Tail-flick test
Experimental: as §1
The tail-flick test was carried out according to the method described by D'Amour and Smith. This involved immersing extreme 3 cm of the mice's tail in water bath containing water at a temperature of 55±0.5° C. […] The reaction time was recorded with a stopwatch. […] The reaction time of mice was taken at intervals of 15, 30 and 60 min after a latency period of 1 hour following the administration of the decoction and drugs.
The protection percentage was calculated as the ratio (reaction time following tramadol administration−initial reaction time): initial reaction time.

[3] = system: glutamate-induced nociception in mice; experiment: Glutamate-induced nociception; settings: p.o., 1 hour before test
Experimental: as §1
Animals were treated with the purified tramadol isolated from Nauclea Latifolia (8, 16 or 32 mg/kg, p.o.), dipyrone (60 mg/kg, p.o.) or 0.9% NaCl (p.o.) 1 hour before test. A volume of 20 μl of glutamate (30 μmol/paw) was injected intraplantarly in the ventral surface of the right hind paw. Animals were observed individually for 15 min following glutamate injection. The amount of time they spent licking the injected paw was recorded with a chronometer and was considered as indicative of nociception. Data were analyzed by two-way Anova followed by Tukey's (HSD) multi-comparison test.

## COc1cccc([C@]2(O)CCCC[C@H]2CN(C)C)c1 (racemic) [F27 of N. latifolia, (±)-cis-2-dimethylaminomethyl-1-(3-methoxyphenyl)cyclohexanol]
[1]; 8 mg/kg p.o.
  Acetic acid-induced writhing inhibition (%): 19.3%
[1]; 16 mg/kg p.o.
  Acetic acid-induced writhing inhibition (%): 43.7%
[1]; 32 mg/kg p.o.
  Acetic acid-induced writhing inhibition (%): 56.8%
[1]; 8, 16 or 32 mg/kg, p.o.
  dose dependence of inhibition of acetic acid-induced abdominal constrictions: dose-dependent
[1]; oral administration
  maximal inhibition of acetic acid-induced abdominal constrictions: 56.8%
[2]; 32 mg/kg p.o., 60 min
  Protection agains thermal nociception (%): 63.5*** %
[2]; between 30 and 60 post-dosing, dose of 800 mg/kg as printed
  maximum inhibitory effect in tail immersion: 63.5%
[3]
  maximal inhibition of glutamate-induced nociception: 66.55%
